Assay [1] deals with p53 (endogenous, HeLa) (human (endogenous in HeLa)) (UniProt P04637). The assay can be described thus: co-IP; crude nuclear extract (1 mg) of Nutlin-3a-treated (10 μM, 4 h) IMR-32 or HeLa cells, anti-p53 (Ab-7) or control sheep IgG overnight at 4°C, Protein G agarose, washes with 0.15% NP-40 in nuclei lysis buffer, Western blot. On the technique in general: A western blot detects proteins with antibodies after separation by electrophoresis.

Assay [2] addresses p53 (endogenous, IMR-32 nuclear extract) (human (endogenous in IMR-32)) (UniProt P04637). The description is as above.

Results are given in words; binding and its absence hold for the method and conditions named. Binding seen in cells or lysates may run through a third protein.

For “MAX (endogenous, HeLa) (from UniProt P61244 1-160)”, the binding result in assay [1] is given as “no binding”.
“MAX (endogenous, IMR-32 nuclear extract) (from UniProt P61244 1-160)”: the binding result in assay [2] is on record as “no binding”.

For the origin of these results see paper PMC5945521.
